These are yes or no findings as the source states them, for the method shown.

Our source for the binding values is article PMC5521794, “Understanding Russell’s viper venom factor V activator’s substrate specificity by surface plasmon resonance and in-silico studies” (PLoS ONE, 2017).

The target of this test is Russell's viper venom factor V activator (Russell's viper). In words: SPR; Biacore T200; RVV-V immobilised on a CM5 chip by amine coupling (3000 RU); peptides flowed over at 62.5 uM to 1 mM in PBS, 30 ul/min; association 120 s, dissociation 300 s; regeneration 10 mM glycine pH 2.5; two-state binding model; both purified. (In SPR one partner is held on a chip, and binding of the other changes the refractive index at the surface.)

For the molecule QNGLAAALGIRSFGN [Peptide I (factor V cleavage site I, Gln699-Asn713)], the binding result is recorded as “no binding (tested: 62.5 uM to 1 mM)”.
